According to paper PMC7273965:
Results are given in words; binding and its absence hold for the method and conditions named. Some results given as binding are weak or reduced against the parent protein; the word gives no strength.

Protein sequences, listed by entry. Tags and fused reporters are not part of them. Residues count along the entry.
UniProt P20029, residues 20-655: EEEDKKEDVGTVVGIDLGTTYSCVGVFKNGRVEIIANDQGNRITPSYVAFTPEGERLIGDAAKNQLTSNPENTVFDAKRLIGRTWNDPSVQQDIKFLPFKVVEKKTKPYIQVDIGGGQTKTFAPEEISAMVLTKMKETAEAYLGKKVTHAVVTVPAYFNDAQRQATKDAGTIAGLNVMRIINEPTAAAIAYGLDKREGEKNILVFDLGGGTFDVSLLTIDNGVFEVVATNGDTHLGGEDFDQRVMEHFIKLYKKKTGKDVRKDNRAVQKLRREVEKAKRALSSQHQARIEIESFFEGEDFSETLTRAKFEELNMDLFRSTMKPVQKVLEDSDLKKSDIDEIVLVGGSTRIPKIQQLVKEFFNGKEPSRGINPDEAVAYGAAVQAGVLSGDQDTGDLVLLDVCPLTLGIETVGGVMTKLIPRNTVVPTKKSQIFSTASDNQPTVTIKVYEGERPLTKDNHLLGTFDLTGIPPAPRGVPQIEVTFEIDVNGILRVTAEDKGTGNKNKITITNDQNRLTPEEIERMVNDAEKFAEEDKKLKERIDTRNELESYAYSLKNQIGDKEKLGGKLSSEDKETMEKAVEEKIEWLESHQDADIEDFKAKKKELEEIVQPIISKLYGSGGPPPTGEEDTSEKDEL
UniProt P11021, residues 19-654: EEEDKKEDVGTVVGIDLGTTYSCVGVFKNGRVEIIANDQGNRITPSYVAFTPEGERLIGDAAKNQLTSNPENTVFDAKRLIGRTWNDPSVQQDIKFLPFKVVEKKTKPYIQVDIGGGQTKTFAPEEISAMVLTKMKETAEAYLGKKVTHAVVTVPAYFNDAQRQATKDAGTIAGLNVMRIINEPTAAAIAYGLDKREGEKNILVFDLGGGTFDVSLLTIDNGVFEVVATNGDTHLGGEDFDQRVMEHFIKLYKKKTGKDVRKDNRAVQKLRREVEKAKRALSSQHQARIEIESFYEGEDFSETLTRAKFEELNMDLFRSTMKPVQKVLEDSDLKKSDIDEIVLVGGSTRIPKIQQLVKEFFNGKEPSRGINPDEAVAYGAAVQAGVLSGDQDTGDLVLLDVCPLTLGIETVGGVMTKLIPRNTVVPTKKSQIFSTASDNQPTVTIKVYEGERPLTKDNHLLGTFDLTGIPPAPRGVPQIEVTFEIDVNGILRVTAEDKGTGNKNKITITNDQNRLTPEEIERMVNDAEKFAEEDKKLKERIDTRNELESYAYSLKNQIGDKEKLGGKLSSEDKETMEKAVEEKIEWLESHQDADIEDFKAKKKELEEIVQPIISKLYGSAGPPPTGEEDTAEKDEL

Legend:
[1] = molecular target: recombinant neuroleukin (NLK), His-tagged (UniProt P06744); assay: co-IP; 20 pmol recombinant NLK and 10 pmol recombinant GRP78 co-incubated 1 h at RT, precipitated with anti-His-tag antibody (or normal mouse IgG) cross-linked to Dynabeads Protein G, 2 h at RT; Western blot for GRP78 and NLK; both purified
[2] = molecular target: 78-kDa glucose-regulated protein (GRP78) of cultured mouse cortical neurons (plasma membrane / cell surface) (mouse (endogenous in cultured cortical neurons of ddY mice)) (UniProt P20029); assay: drug affinity responsive target stability (DARTS); plasma membrane lysate of cultured neurons (5 µg protein) incubated 30 min at RT with 10 µg/ml recombinant NLK or vehicle, then thermolysin 30 min at 37°C (50 mM Tris-HCl pH 8.0, 50 mM NaCl, 10 mM CaCl2); GRP78 detected by Western blot; only the binder purified

binding [1]	binding [2]	Substance
binds	–	recombinant 78-kDa glucose-regulated protein (GRP78) (from UniProt P11021 19-654)
–	binds	recombinant neuroleukin (NLK), His-tagged (from UniProt P06744 1-558) (ligand)
